Values from PubChem BioAssay AID1259424 (University of Nebraska Medical Center, 2018).

Purpose: 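Seek colon cancer survival genes behaving like KSR1, using a six-gene signature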 (primary screen)
Cells: human HCT116 colon cancer cells
Reagent: siRNA pool against human genes, 50 nM
Detection: 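Log2 levels of six mRNAs (branched-DNA multiplex), adjusted by two reference genes and the non-targeting median, then scored against the average KSR1 knockdown pattern as Pearson r and euclidean distance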
Direction: mean correlation with KSR1 profile and KSR1 correlation: higher = expression change more like KSR1 knockdown; mean distance from KSR1 profile: higher = expression change less like KSR1 knockdown
The whole screen tested about 14,000 reagents; shown is a random part of them. 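Higher correlation or smaller distance means closer resemblance to KSR1 loss; control wells, including KSR1 knockdowns, recur on many plates.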 Reagent sequences are not shown. The record does not give: the time to read-out.

Target gene | PubChem SID | mean correlation with KSR1 profile | mean distance from KSR1 profile | KSR1 correlation, replicate 1 | KSR1 correlation, replicate 2 | KSR1 correlation, replicate 3
ACAT2 | SID363996760 | 0.032 | 1.6 | -0.177 | -0.0193 | 0.253
PLPPR4 | SID363999137 | 0.0907 | 1.99 | -0.0251 | 0.198 | 0.199
ADAM3B | SID364005634 | -0.0526 | 2.68 | -0.304 | -0.13 | 0.131
LTV1 | SID364004234 | 0.171 | 1.92 | 0.29 | 0.219 | 0.153
PSMB3 | SID363993952 | -0.145 | 4.67 | -0.0634 | -0.118 | -0.324
RCHY1 | SID363999494 | -0.75 | 3.27 | -0.723 | -0.775 | -0.646
ITIH5 | SID364003361 | 0.626 | 3.25 | 0.661 | 0.501 | 0.706
ITIH5 | SID364004197 | 0.912 | 3.15 | 0.876 | 0.903 | 0.791
SFT2D3 | SID364004148 | 0.363 | 3.3 | 0.187 | 0.0744 | 0.298
LDAH | SID364002218 | -0.329 | 2.05 | -0.532 | -0.398 | -0.127
HOXA5 | SID364001402 | 0.517 | 2.38 | 0.465 | 0.246 | 0.591
RANBP17 | SID364002589 | -0.461 | 1.97 | -0.634 | -0.678 | -0.321
GALNS | SID363991835 | -0.0789 | 3.73 | 0.208 | 0.0704 | -0.125
PPFIA2 | SID363994701 | -0.0583 | 2.09 | -0.244 | 0.155 | -0.346
SLC8A3 | SID364004351 | -0.0502 | 2.76 | -0.145 | -0.00452 | 0.049
CYP4F3 | SID363992181 | -0.274 | 2.85 | -0.0671 | -0.689 | -0.0323
DNAJB9 | SID363998238 | 0.115 | 1.12 | -0.0342 | -0.503 | 0.561
MMD | SID363998239 | -0.25 | 2.64 | -0.213 | -0.38 | -0.122
MGAT4A | SID363998146 | -0.0529 | 1.49 | -0.157 | -0.0671 | 0.0229

Next part; the last 4 above are carried over.
Target gene | PubChem SID | mean correlation with KSR1 profile | mean distance from KSR1 profile | KSR1 correlation, replicate 1 | KSR1 correlation, replicate 2 | KSR1 correlation, replicate 3
CYP4F3 | SID363992181 | -0.274 | 2.85 | -0.0671 | -0.689 | -0.0323
DNAJB9 | SID363998238 | 0.115 | 1.12 | -0.0342 | -0.503 | 0.561
MMD | SID363998239 | -0.25 | 2.64 | -0.213 | -0.38 | -0.122
MGAT4A | SID363998146 | -0.0529 | 1.49 | -0.157 | -0.0671 | 0.0229
ACY3 | SID364004491 | -0.587 | 2.54 | -0.431 | -0.558 | -0.482
HYDIN | SID364000358 | -0.644 | 10 | -0.445 | -0.65 | -0.0729
ADGRL1 | SID363999197 | 0.927 | 0.966 | 0.843 | 0.954 | 0.918
OXCT1 | SID363991767 | 0.467 | 1.24 | 0.34 | 0.537 | 0.452
MANSC1 | SID364000738 | 0.323 | 1.3 | -0.154 | 0.795 | 0.237
TSC1 | SID363991699 | -0.432 | 1.72 | -0.304 | -0.355 | -0.565
NGDN | SID364005072 | -0.382 | 2.72 | -0.374 | -0.337 | -0.0741
DOK2 | SID363995027 | -0.247 | 2.57 | -0.15 | -0.309 | -0.281
CD99 | SID363993592 | -0.297 | 1.44 | -0.202 | -0.25 | -0.356
ANOS1 | SID363991551 | 0.0398 | 2.13 | 0.0414 | 0.0115 | -0.00896
RUNX3 | SID363995338 | 0.439 | 1.36 | 0.557 | 0.492 | 0.233
ZC3HAV1 | SID364001483 | -0.451 | 2.2 | -0.574 | -0.508 | -0.516
STRAP | SID363997878 | -0.122 | 1.52 | -0.22 | -0.306 | 0.438
ANK3 | SID363992441 | 0.261 | 1.3 | 0.288 | 0.386 | -0.0423
ADCY9 | SID363992410 | -0.353 | 2.05 | -0.342 | -0.458 | -0.178
